Test results reported in the supplement of paper PMC12823440, “Inhibitors supercharge kinase turnover through native proteolytic circuits” (Nature, 2025).
Where a name gives a salt, the structure may show the parent alone. The list shows a part of the results. The calls rarely recur for the same compound in another form.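 Kinases were expressed as nanoluciferase fusions in K562 cells and luminescence was read every 4 h between 2 and 18 h as percent of control, DMSO set to 100% and a positive control to 0%. A time point counts as decreased when the signal drops significantly (2 sigma). The hit call is the authors' own, does not follow from the count of time points alone, and its rule is not shown.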

Chains of the proteins cited; added tags and fusions are not shown.
UniProt P29317, whole entry: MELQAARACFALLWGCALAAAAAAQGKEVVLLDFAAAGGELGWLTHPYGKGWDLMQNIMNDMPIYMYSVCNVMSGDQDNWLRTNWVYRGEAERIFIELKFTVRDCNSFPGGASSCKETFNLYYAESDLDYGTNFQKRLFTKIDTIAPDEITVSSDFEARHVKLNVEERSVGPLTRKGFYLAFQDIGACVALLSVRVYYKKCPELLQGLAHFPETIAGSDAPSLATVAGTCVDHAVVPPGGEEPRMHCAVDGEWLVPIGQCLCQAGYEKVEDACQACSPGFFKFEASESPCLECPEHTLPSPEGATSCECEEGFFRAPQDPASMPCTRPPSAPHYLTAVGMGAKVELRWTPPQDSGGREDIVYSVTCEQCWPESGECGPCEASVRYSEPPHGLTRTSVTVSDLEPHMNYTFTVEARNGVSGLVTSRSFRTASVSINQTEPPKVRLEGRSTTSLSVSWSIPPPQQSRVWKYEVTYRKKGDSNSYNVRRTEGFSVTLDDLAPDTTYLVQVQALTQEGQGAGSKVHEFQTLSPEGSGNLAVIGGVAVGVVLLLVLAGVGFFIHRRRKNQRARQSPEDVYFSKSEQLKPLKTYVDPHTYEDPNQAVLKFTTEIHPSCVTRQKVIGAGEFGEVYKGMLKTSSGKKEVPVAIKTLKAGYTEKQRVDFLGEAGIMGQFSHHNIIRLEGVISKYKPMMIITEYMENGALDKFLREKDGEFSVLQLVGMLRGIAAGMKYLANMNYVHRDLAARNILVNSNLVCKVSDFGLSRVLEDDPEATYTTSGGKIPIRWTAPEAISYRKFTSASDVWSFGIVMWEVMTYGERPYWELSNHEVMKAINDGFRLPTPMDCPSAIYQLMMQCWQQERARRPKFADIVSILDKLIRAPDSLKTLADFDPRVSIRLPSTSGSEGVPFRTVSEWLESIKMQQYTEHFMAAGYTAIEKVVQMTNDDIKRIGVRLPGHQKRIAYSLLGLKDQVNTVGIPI
UniProt P21860, whole entry: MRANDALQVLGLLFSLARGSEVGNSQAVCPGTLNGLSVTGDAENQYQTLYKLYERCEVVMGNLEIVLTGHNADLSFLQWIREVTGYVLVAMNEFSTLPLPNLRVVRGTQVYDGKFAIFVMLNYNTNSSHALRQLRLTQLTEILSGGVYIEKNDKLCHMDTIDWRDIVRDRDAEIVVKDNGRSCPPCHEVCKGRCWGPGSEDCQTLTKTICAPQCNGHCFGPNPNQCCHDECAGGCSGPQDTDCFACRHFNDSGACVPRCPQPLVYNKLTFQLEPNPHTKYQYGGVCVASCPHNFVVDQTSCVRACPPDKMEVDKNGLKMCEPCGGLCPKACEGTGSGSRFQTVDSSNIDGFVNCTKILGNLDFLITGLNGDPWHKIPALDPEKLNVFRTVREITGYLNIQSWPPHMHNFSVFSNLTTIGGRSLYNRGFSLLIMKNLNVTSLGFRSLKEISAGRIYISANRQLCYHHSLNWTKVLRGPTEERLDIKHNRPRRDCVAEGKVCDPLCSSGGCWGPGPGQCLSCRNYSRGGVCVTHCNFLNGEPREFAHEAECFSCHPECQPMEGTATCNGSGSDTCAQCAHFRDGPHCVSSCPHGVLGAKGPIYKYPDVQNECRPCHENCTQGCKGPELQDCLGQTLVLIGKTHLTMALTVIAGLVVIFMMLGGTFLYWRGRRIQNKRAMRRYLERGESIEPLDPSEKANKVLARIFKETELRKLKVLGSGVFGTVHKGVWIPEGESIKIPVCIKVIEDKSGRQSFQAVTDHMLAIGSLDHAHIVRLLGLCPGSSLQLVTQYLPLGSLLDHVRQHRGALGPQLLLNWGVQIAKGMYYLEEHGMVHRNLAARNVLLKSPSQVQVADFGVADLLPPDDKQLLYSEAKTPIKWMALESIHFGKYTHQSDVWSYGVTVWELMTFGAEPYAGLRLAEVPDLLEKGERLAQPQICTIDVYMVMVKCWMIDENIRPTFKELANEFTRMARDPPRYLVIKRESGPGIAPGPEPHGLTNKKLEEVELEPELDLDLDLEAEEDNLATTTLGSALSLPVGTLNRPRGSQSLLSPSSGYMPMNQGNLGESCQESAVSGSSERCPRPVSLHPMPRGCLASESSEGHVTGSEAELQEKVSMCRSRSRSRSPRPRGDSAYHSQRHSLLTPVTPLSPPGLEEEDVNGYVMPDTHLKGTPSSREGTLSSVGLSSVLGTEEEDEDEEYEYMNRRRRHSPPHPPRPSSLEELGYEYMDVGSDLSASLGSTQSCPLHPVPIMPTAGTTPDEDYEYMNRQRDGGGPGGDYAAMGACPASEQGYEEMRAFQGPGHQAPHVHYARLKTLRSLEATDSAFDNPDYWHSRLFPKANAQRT
UniProt Q15303, whole entry R711C: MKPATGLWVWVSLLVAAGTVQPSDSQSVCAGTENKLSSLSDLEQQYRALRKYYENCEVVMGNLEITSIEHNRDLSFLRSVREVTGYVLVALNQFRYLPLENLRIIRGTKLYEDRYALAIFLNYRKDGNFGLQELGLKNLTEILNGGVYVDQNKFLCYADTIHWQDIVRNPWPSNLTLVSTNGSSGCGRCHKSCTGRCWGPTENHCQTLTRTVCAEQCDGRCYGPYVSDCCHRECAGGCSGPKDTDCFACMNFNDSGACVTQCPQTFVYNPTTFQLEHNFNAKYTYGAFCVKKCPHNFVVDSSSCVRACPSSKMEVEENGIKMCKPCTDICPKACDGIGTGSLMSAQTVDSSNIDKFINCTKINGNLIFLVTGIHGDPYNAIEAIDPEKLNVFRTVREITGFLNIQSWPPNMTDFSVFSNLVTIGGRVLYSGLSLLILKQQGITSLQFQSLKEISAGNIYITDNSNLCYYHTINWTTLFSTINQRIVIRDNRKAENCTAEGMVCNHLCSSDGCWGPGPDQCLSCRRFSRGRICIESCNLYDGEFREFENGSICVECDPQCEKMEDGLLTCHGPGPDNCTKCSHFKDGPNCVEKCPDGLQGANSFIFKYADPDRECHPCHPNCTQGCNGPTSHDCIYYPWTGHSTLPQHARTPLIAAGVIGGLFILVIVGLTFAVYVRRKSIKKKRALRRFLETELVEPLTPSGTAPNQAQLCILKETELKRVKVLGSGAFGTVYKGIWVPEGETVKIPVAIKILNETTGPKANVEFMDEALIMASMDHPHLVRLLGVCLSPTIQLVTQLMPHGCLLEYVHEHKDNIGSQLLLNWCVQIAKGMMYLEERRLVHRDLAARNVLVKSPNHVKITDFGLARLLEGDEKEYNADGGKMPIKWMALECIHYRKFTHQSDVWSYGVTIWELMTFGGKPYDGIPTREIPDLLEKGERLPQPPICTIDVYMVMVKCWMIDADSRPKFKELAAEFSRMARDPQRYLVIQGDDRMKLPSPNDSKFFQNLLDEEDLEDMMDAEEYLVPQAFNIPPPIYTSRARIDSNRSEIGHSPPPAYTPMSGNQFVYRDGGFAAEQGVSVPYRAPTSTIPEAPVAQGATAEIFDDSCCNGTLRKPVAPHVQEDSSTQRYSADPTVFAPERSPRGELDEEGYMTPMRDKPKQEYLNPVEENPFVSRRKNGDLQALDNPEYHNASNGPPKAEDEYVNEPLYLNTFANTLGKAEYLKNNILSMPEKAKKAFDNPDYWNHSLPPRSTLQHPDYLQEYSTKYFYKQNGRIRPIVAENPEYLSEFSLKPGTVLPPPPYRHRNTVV

What was measured:
Test in all cases: kinase-Nluc reporter destabilization hit call (1 = scored as downregulated) (binary); higher = compound decreases kinase abundance
Conditions in all cases: K562; 2-18 h
EGFR = EGFR (UniProt P00533)
EGFR_G719S = EGFR_G719S (UniProt P00533)
EGFR_G719S_T790M = EGFR_G719S_T790M (UniProt P00533)
EGFR_L718V = EGFR_L718V (UniProt P00533)
EGFR_L858R = EGFR_L858R (UniProt P00533)
EGFR_L861Q = EGFR_L861Q (UniProt P00533)
EGFR_T790M = EGFR_T790M (UniProt P00533)
EPHA2 = EPHA2 (UniProt P29317)
ERBB3 = ERBB3 (UniProt P21860)
[1] = target: ERBB4_R711C (clone: ERBB4_mut) (UniProt Q15303)

Measured: kinase-Nluc reporter destabilization hit call

Nc1nc2ccc(Cl)cc2c2nc(-c3ccco3)nn12 (10 µM)
inactive: EGFR 0 | EGFR_G719S 0 | EGFR_G719S_T790M 0 | EGFR_L718V 0 | EGFR_L858R 0 | EGFR_L861Q 0 | EGFR_T790M 0 | EPHA2 = 0 | ERBB3 = 0 | [1] 0

O=C([O-])c1cc2ccccc2c(Cc2c(O)c(C(=O)[O-])cc3ccccc23)c1O.[Na+].[Na+] [Pamoic acid (disodium)] (10 µM)
inactive: EGFR 0 | EGFR_G719S 0 | EGFR_G719S_T790M 0 | EGFR_L718V 0 | EGFR_L858R 0 | EGFR_L861Q 0 | EGFR_T790M 0 | EPHA2 = 0 | ERBB3 = 0 | [1] 0

CCN1CCN(Cc2ccc(Nc3ncc(F)c(-c4cc(F)c5nc(C)n(C(C)C)c5c4)n3)nc2)CC1 [Abemaciclib] (2 µM)
inactive: EGFR 0 | EGFR_G719S 0 | EGFR_G719S_T790M 0 | EGFR_L718V 0 | EGFR_L858R 0 | EGFR_L861Q 0 | EGFR_T790M 0 | EPHA2 = 0 | ERBB3 = 0 | [1] 0

Reprinted at random: two entries already listed
CCN1CCN(Cc2ccc(Nc3ncc(F)c(-c4cc(F)c5nc(C)n(C(C)C)c5c4)n3)nc2)CC1 [Abemaciclib] (2 µM)
inactive: EGFR 0 | EGFR_G719S 0 | EGFR_G719S_T790M 0 | EGFR_L718V 0 | EGFR_L858R 0 | EGFR_L861Q 0 | EGFR_T790M 0 | EPHA2 = 0 | ERBB3 = 0 | [1] 0

O=C([O-])c1cc2ccccc2c(Cc2c(O)c(C(=O)[O-])cc3ccccc23)c1O.[Na+].[Na+] [Pamoic acid (disodium)] (10 µM)
inactive: EGFR 0 | EGFR_G719S 0 | EGFR_G719S_T790M 0 | EGFR_L718V 0 | EGFR_L858R 0 | EGFR_L861Q 0 | EGFR_T790M 0 | EPHA2 = 0 | ERBB3 = 0 | [1] 0

The results go on:

NC(=O)c1nc(Nc2ccccc2)sc1NC(=O)C1CCCCC1 (10 µM)
inactive: EGFR 0 | EGFR_G719S 0 | EGFR_G719S_T790M 0 | EGFR_L718V 0 | EGFR_L858R 0 | EGFR_L861Q 0 | EGFR_T790M 0 | EPHA2 = 0 | ERBB3 = 0 | [1] 0

NS(=O)(=O)c1ccc(-n2nc(C(F)(F)F)cc2-c2ccc(Cl)cc2)cc1 (10 µM)
inactive: EGFR 0 | EGFR_G719S 0 | EGFR_G719S_T790M 0 | EGFR_L718V 0 | EGFR_L858R 0 | EGFR_L861Q 0 | EGFR_T790M 0 | EPHA2 = 0 | ERBB3 = 0 | [1] 0

COc1cc(Nc2ncc(F)c(Nc3ccc4c(n3)N(COP(=O)(O)O)C(=O)C(C)(C)O4)n2)cc(OC)c1OC [Fostamatinib Disodium] (10 µM)
inactive: EGFR 0 | EGFR_G719S 0 | EGFR_G719S_T790M 0 | EGFR_L718V 0 | EGFR_L858R 0 | EGFR_L861Q 0 | EGFR_T790M 0 | EPHA2 = 0 | ERBB3 = 0 | [1] 0

Cn1nccc1Nc1nccc(-c2ccn([C@H](CO)c3ccc(Cl)c(F)c3)c(=O)c2)n1 [Ravoxertinib] (10 µM)
inactive: EGFR 0 | EGFR_G719S 0 | EGFR_G719S_T790M 0 | EGFR_L718V 0 | EGFR_L858R 0 | EGFR_L861Q 0 | EGFR_T790M 0 | EPHA2 = 0 | ERBB3 = 0 | [1] 0

c1cc(-c2c[nH]c3nccc(N4CCC[C@@]5(CCCCN5)C4)c23)ncn1 (10 µM)
inactive: EGFR 0 | EGFR_G719S 0 | EGFR_G719S_T790M 0 | EGFR_L718V 0 | EGFR_L858R 0 | EGFR_L861Q 0 | EGFR_T790M 0 | EPHA2 = 0 | ERBB3 = 0 | [1] 0

O=C(CSC1=NCCN1)NC1CCCCCC1 [ICCB-19 (hydrochloride)] (2.5 µM)
inactive: EGFR 0 | EGFR_G719S 0 | EGFR_G719S_T790M 0 | EGFR_L718V 0 | EGFR_L858R 0 | EGFR_L861Q 0 | EGFR_T790M 0 | EPHA2 = 0 | ERBB3 = 0 | [1] 0

O=C(NCCN1CCCC1)c1cc(-c2ccc(CN3CCOCC3)cc2)nc2ccc(F)cc12 (10 µM)
inactive: EGFR 0 | EGFR_G719S 0 | EGFR_G719S_T790M 0 | EGFR_L718V 0 | EGFR_L858R 0 | EGFR_L861Q 0 | EGFR_T790M 0 | EPHA2 = 0 | ERBB3 = 0 | [1] 0

CCN1CCN(Cc2ccc(Nc3ncc(F)c(-c4cc(F)c5nc(C)n(C(C)C)c5c4)n3)nc2)CC1 [Abemaciclib (methanesulfonate)] (10 µM)
inactive: EGFR 0 | EGFR_G719S 0 | EGFR_G719S_T790M 0 | EGFR_L718V 0 | EGFR_L858R 0 | EGFR_L861Q 0 | EGFR_T790M 0 | EPHA2 = 0 | ERBB3 = 0 | [1] 0

CS(=O)(=O)Nc1cc(-c2ccc3ncnc(Nc4ccc(F)c(Cl)c4)c3c2)cnc1Cl (2.5 µM)
inactive: EGFR 0 | EGFR_G719S 0 | EGFR_G719S_T790M 0 | EGFR_L718V 0 | EGFR_L858R 0 | EGFR_L861Q 0 | EGFR_T790M 0 | EPHA2 = 0 | ERBB3 = 0 | [1] 0

CNC(=O)c1cc(COc2nnc(Nc3ccc(Cl)cc3)c3ccoc23)ccn1 [Telatinib] (10 µM)
inactive: EGFR 0 | EGFR_G719S 0 | EGFR_G719S_T790M 0 | EGFR_L718V 0 | EGFR_L858R 0 | EGFR_L861Q 0 | EGFR_T790M 0 | EPHA2 = 0 | ERBB3 = 0 | [1] 0

Cc1nc(-c2cn3c(n2)-c2ccc(-c4cnn(C(C)(C)C(N)=O)c4)cc2OCC3)n(C(C)C)n1 [Taselisib] (10 µM)
inactive: EGFR 0 | EGFR_G719S 0 | EGFR_G719S_T790M 0 | EGFR_L718V 0 | EGFR_L858R 0 | EGFR_L861Q 0 | EGFR_T790M 0 | EPHA2 = 0 | ERBB3 = 0 | [1] 0

Cc1cc(CN2CCN(c3c(Br)cnc4nc(-c5ccc(N6CCN(C)CC6)cc5)[nH]c34)CC2)no1 (2.5 µM)
inactive: EGFR 0 | EGFR_G719S 0 | EGFR_G719S_T790M 0 | EGFR_L718V 0 | EGFR_L858R 0 | EGFR_L861Q 0 | EGFR_T790M 0 | EPHA2 = 0 | ERBB3 = 0 | [1] 0

O=C1NC(=O)/C(=C\c2cccc(C(F)(F)F)c2)S1 (2.5 µM)
inactive: EGFR 0 | EGFR_G719S 0 | EGFR_G719S_T790M 0 | EGFR_L718V 0 | EGFR_L858R 0 | EGFR_L861Q 0 | EGFR_T790M 0 | EPHA2 = 0 | ERBB3 = 0 | [1] 0

CC(C)(C)c1cc(O)ccc1O (10 µM)
inactive: EGFR 0 | EGFR_G719S 0 | EGFR_G719S_T790M 0 | EGFR_L718V 0 | EGFR_L858R 0 | EGFR_L861Q 0 | EGFR_T790M 0 | EPHA2 = 0 | ERBB3 = 0 | [1] 0

COc1cc2nccc(Oc3ccc(NC(=O)NC4CC4)c(Cl)c3)c2cc1C(N)=O [Lenvatinib (mesylate)] (10 µM)
inactive: EGFR 0 | EGFR_G719S 0 | EGFR_G719S_T790M 0 | EGFR_L718V 0 | EGFR_L858R 0 | EGFR_L861Q 0 | EGFR_T790M 0 | EPHA2 = 0 | ERBB3 = 0 | [1] 0

C=C(CC[C@@H](C(=O)O)[C@H]1[C@H](O)C[C@@]2(C)C3=C(CC[C@]12C)[C@@]1(C)CC[C@H](OC(C)=O)C(C)(C)[C@@H]1CC3)C(C)C [Pachymic acid] (10 µM)
inactive: EGFR 0 | EGFR_G719S 0 | EGFR_G719S_T790M 0 | EGFR_L718V 0 | EGFR_L858R 0 | EGFR_L861Q 0 | EGFR_T790M 0 | EPHA2 = 0 | ERBB3 = 0 | [1] 0

C[C@@H](c1ccc(F)cc1)n1nnc2cnc3ccc(-c4ccc5ocnc5c4)cc3c21 (10 µM)
inactive: EGFR 0 | EGFR_G719S 0 | EGFR_G719S_T790M 0 | EGFR_L718V 0 | EGFR_L858R 0 | EGFR_L861Q 0 | EGFR_T790M 0 | EPHA2 = 0 | ERBB3 = 0 | [1] 0

COCCNc1nc2ccc(C#CC3(O)CCCCC3)cc2n1-c1ccnc(N)n1 (10 µM)
inactive: EGFR 0 | EGFR_G719S 0 | EGFR_G719S_T790M 0 | EGFR_L718V 0 | EGFR_L858R 0 | EGFR_L861Q 0 | EGFR_T790M 0 | EPHA2 = 0 | ERBB3 = 0 | [1] 0

COc1ncc(Cl)cc1S(=O)(=O)Nc1ccc(F)c(C#Cc2cnc(N)nc2)c1F (2.5 µM)
inactive: EGFR 0 | EGFR_G719S 0 | EGFR_G719S_T790M 0 | EGFR_L718V 0 | EGFR_L858R 0 | EGFR_L861Q 0 | EGFR_T790M 0 | EPHA2 = 0 | ERBB3 = 0 | [1] 0

O=C(Nc1ccc(CN2CCOCC2)cc1)c1ccc(-c2cccc(Cl)c2)o1 (10 µM)
inactive: EGFR 0 | EGFR_G719S 0 | EGFR_G719S_T790M 0 | EGFR_L718V 0 | EGFR_L858R 0 | EGFR_L861Q 0 | EGFR_T790M 0 | EPHA2 = 0 | ERBB3 = 0 | [1] 0

CN1CCN(c2cccc(Nc3nc4c(-c5ccc(S(C)(=O)=O)cc5)cccn4n3)c2)CC1 (10 µM)
inactive: EGFR 0 | EGFR_G719S 0 | EGFR_G719S_T790M 0 | EGFR_L718V 0 | EGFR_L858R 0 | EGFR_L861Q 0 | EGFR_T790M 0 | EPHA2 = 0 | ERBB3 = 0 | [1] 0

CCOC(=O)N1CCN(C(=O)[C@H](Cc2cccc(C(=N)N)c2)NS(=O)(=O)c2c(C(C)C)cc(C(C)C)cc2C(C)C)CC1 (10 µM)
inactive: EGFR 0 | EGFR_G719S 0 | EGFR_G719S_T790M 0 | EGFR_L718V 0 | EGFR_L858R 0 | EGFR_L861Q 0 | EGFR_T790M 0 | EPHA2 = 0 | ERBB3 = 0 | [1] 0

COc1cc2nccc(Oc3ccc(NC(=O)NC4CC4)c(Cl)c3)c2cc1C(N)=O [Lenvatinib] (10 µM)
inactive: EGFR 0 | EGFR_G719S 0 | EGFR_G719S_T790M 0 | EGFR_L718V 0 | EGFR_L858R 0 | EGFR_L861Q 0 | EGFR_T790M 0 | EPHA2 = 0 | ERBB3 = 0 | [1] 0

FC(F)(F)c1ccc(CNc2ccc(Cc3c[nH]c4ncccc34)cn2)cc1 (10 µM)
inactive: EGFR 0 | EGFR_G719S 0 | EGFR_G719S_T790M 0 | EGFR_L718V 0 | EGFR_L858R 0 | EGFR_L861Q 0 | EGFR_T790M 0 | EPHA2 = 0 | ERBB3 = 0 | [1] 0

Cc1cc(Nc2ncnc3ccc(NC4=NC(C)(C)CO4)cc23)ccc1Oc1ccn2ncnc2c1 [Tucatinib] (2.5 µM)
inactive: EGFR 0 | EGFR_G719S 0 | EGFR_G719S_T790M 0 | EGFR_L718V 0 | EGFR_L858R 0 | EGFR_L861Q 0 | EGFR_T790M 0 | EPHA2 = 0 | ERBB3 = 0 | [1] 0

CNC(=O)c1ccc(C)c(-n2c(C)cc(OCc3ccc(F)cc3F)c(Br)c2=O)c1 (10 µM)
inactive: EGFR 0 | EGFR_G719S 0 | EGFR_G719S_T790M 0 | EGFR_L718V 0 | EGFR_L858R 0 | EGFR_L861Q 0 | EGFR_T790M 0 | EPHA2 = 0 | ERBB3 = 0 | [1] 0

O=C1NC(=O)/C(=C/c2ccc3nccnc3c2)S1 (10 µM)
inactive: EGFR 0 | EGFR_G719S 0 | EGFR_G719S_T790M 0 | EGFR_L718V 0 | EGFR_L858R 0 | EGFR_L861Q 0 | EGFR_T790M 0 | EPHA2 = 0 | ERBB3 = 0 | [1] 0
